Test results published in patent publication US20250188151A1 (The University of Bath, priority 2022, published 2025).

Test: general procedure: Fmoc solid-phase peptide synthesis; ChemMatrix Rink amide resin
Details: whole synthesis, scale of the general procedure 0.1 mmol

Row | Substance | difficulty met
1 | Ac-LARENEELEKEAEELVVEEDVLEEEIEQLEERNYALRKEIEDLQKQLEKL-NH2 | 2 and 3 only produced at strikingly low yields
2 | Ac-LEKEAEELVVEEDVLEEEIEQLEERNYALRKEIEDLQKQLEKL-NH2 | 2 and 3 only produced at strikingly low yields
